In patent US20090118204A1, “Methods and Compositions Related to Esculentoside A” (UNIVERSITY OF ROCHESTER, priority 2004, published 2009):
For at least one compound, name, drawing or mass did not settle the structure.

Legend:
mouse = assay: Alopecia and hair regrowth after 30 Gy irradiation; format: in vivo; conditions: Celebrex i.g. 50 mg/kg for 20 days
C57BL/6 mice = assay: IR-induced early soft tissue (skin) toxicity in mice; format: in vivo, mouse; conditions: 4 weeks after 30 Gy IR, same dosing
Experimental: EsA protects the soft tissue from IR-induced damage. IR sensitive and IL1β high expressing C57BL/6 mice are irradiated with 30 Gy and the skin damage is measured with a preclinical criteria (Table 4).
The effect of EsA was examined with this model system. […] The difference was statistically significant (FIG. 7).
A repeat experiment was performed with an increased number of mice (10 mice/group), and the EsA protective effect was confirmed.

Cc1ccc(-c2cc(C(F)(F)F)nn2-c2ccc(S(N)(=O)=O)cc2)cc1 [Celebrex, celecoxib, reference compound]
hair regrowth / duration of alopecia (mouse): greater than five weeks | protection of soft tissue (C57BL/6 mice): lost its protection effect
